Experimental data: PubChem BioAssay AID2685 (National Center for Advancing Translational Sciences (NCATS), 2010)
The other results are listed elsewhere or left out. These are further read-outs of the screen, such as a control signal, another cell line or another target. No call is given for them. Compounds called inactive in the main read-out are mostly missing here. The note in brackets gives the kind of curve behind each potency; many fits are weak.

Assay: qHTS Assay for Lipid Storage Modulators in Drosophila S3 Cells;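 on cell number change: cells counted by Cell Tracker Red CMTPX staining in the red channel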
Details: BODIPY lipid droplet fluorescence, 18-24 h; for cell number change: measured here: cell count max response, cells fed with added oleic acid
In short: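 Drosophila S3 cells loaded with oleic acid (400 uM, as added) and compounds at several concentrations; lipid droplets imaged by 488-nm laser-scanning cytometry, 500–530 nm intensity and object ratio to cell channel. Percent activity normalized to 20 uM Triacsin C.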

[1] = measured here: cell number channel AC50, cells fed with added oleic acid
[2] = measured here: lipid fluorescence (Fed channel) AC50, cells fed with added oleic acid

Compound | cell number change | AC50 [1] | AC50 [2]
COc1ccc(-c2ccc(C(=O)O)o2)c([N+](=O)[O-])c1 | 19.2% | 1.64 µM [falling, partial curve] | –
O=C1CCCC2=C1C(c1ccccc1)C1C(=O)c3ccccc3C1=N2 (stereo not drawn) | 17.4% | – | 2.91 µM [rising, full curve, poor fit]
CC(C)(C)NC(=O)C1CCN(C(=O)c2ccco2)CC1 | 5.88% | – | –
Cc1ccc(C(=O)Nc2nnc(C)s2)o1 | -30.3% | 20.6 µM [falling, single point] | 29.1 µM [falling, single point]
O=C(NC(=S)Nc1ccc(N2CCOCC2)cc1)c1cncc(Br)c1 | – | 0.103 µM [falling, full curve, poor fit] | 0.58 µM [rising, partial curve]
COC(=O)C1=C(C)N(C)C(=S)NC1c1ccccc1 (stereo not drawn) | -10.9% | – | 6.51 µM [falling, single point]
CCC1=NN2C(=N)/C(=C\c3cccn3-c3ccc(OC)cc3)C(=O)N=C2S1 | 37.5% | – | 0.326 µM [falling, partial curve]
Cc1cc(NC(=S)N(CCCN2CCOCC2)Cc2ccco2)ccc1Cl | -0.617% | – | –
O=C(c1cnn(Cc2ccccc2)c1)N1CCN(S(=O)(=O)/C=C/c2ccccc2)CC1 | -13.2% | – | 0.082 µM [rising, partial curve, poor fit]
CC(=O)Oc1ccc(C(=O)Nc2cccc3c2CCCC3)cc1 | -12.4% | – | –
O=C(Cc1cccs1)NNC(=O)C12CC3CC(CC(C3)C1)C2 | 55.7% | 16.4 µM [rising, single point] | –
CN(CC(=O)NC(=O)NCc1ccccc1)CC(=O)Nc1ccc(Cl)c(C(F)(F)F)c1 | -27.2% | – | –
O=C(OCc1nc2ccc(Cl)cc2n1CCO)c1ccccc1 | -2.88% | – | 0.116 µM [falling, full curve, poor fit]
CCOC(=O)C(=CNc1cc(C)nn1-c1ccc(C)cc1)C(=O)OCC | 22.6% | – | 1.64 µM [rising, partial curve]
Cc1cccc(/C=N/NC(=O)c2ccc3c(c2)OCCO3)c1O | -38.2% | 2.06 µM [falling, partial curve] | 6.51 µM [falling, single point]
O=C(c1noc2c1CCCC2)N1CCN(C(c2ccccc2)c2ccccc2)CC1 | -0.283% | – | –
O=C(O)CCc1ccc(S(=O)(=O)Nc2cc(C(F)(F)F)ccc2N2CCCC2)cc1 | – | – | 4.61 µM [rising, full curve]
COc1ccc(C(C2C(=O)CC(C)(C)CC2=O)C2C(=O)CC(C)(C)CC2=O)cc1CO | 70.9% | 23.1 µM [rising, partial curve, poor fit] | 20.6 µM [rising, partial curve]
c1ccc(COc2ccc(OCCCNC3CCCC3)cc2)cc1 | 8.75% | – | 3.66 µM [falling, partial curve]
CC(=O)c1c(C)[nH]c(C(=O)Nc2cc(C)cc(C)c2)c1C | 22.3% | 0.92 µM [rising, full curve, poor fit] | 25.9 µM [falling, single point]

Another view of part of the listing above:
Compound	cell number change	AC50 [1]	AC50 [2]
COc1ccc(-c2ccc(C(=O)O)o2)c([N+](=O)[O-])c1	19.2%	1.64 µM [falling, partial curve]	–
O=C(c1noc2c1CCCC2)N1CCN(C(c2ccccc2)c2ccccc2)CC1	-0.283%	–	–

(further entries)

Compound | cell number change | AC50 [1] | AC50 [2]
COc1ccc(OC)c(NC(=O)COC(=O)CCC2CCCC2)c1 | -14.6% | – | –
CCc1ccc(/C=C2\SC(=S)N(CCC(=O)NCCCN3CCOCC3)C2=O)cc1 | 13% | – | 2.59 µM [rising, single point]
CNC(=S)N(CCc1c(C)[nH]c2ccc(OC)cc12)Cc1cc(OC)c(OC)c(OC)c1 | -4.52% | – | 1.3 µM [rising, partial curve]
CC1=C[C@H](C)[C@H](c2c(F)cccc2Cl)CC1=O | -2.59% | – | 0.651 µM [rising, partial curve, poor fit]
O=C(CSc1nc2ccc(Cl)cc2[nH]1)c1ccc2c(c1)OCO2 | – | – | 20.6 µM [falling, partial curve]
Cc1ccc2nc(NC(=O)CSc3nc4c(c(=O)n3C)SC(C)C4)sc2c1 (stereo not drawn) | -32.9% | 29.1 µM [falling, single point] | 29.1 µM [falling, single point]
Nc1cccc(C(=O)OCC(=O)NC2CCCc3ccccc32)c1 (stereo not drawn) | -65.4% | 5.8 µM [falling, partial curve, poor fit] | 6.51 µM [falling, partial curve, poor fit]
CC(NS(=O)(=O)c1ccc(Br)s1)c1ccccc1 (stereo not drawn) | – | – | 29.1 µM [falling, single point]
CCc1cccc(NC(=O)CCNS(=O)(=O)c2cccc3nonc23)c1 | 17.8% | – | 3.26 µM [falling, single point]
CCCCCCC1(C)NC(=O)N(C(C)C(=O)Nc2ccc(N3CCOCC3)cc2)C1=O (stereo not drawn) | 14.9% | – | 23.1 µM [rising, single point]
COc1ccc(NC(=O)COC(=O)C2CC(=O)N(c3ccc(C)cc3)C2)cc1 (stereo not drawn) | 30.5% | 20.6 µM [rising, single point] | 0.206 µM [rising, single point]
CCN(C(=O)CN1C(=O)NC(CCSC)C1=O)C1CCS(=O)(=O)C1 (stereo not drawn) | 2.88% | – | 0.164 µM [rising, full curve, poor fit]
CCOC(=O)c1ccc(N=CC2=C(O)CC(C)(C)CC2=O)cc1 | -2.48% | – | –
CCCC(=O)Nc1ccc(C=C(C(C)=O)C(C)=O)cc1 | -20.2% | – | 9.2 µM [falling, partial curve, poor fit]
CC1CCC(C(=O)NC(C(=O)N2CCN(c3ccccn3)CC2)C(C)C)CC1 (stereo not drawn) | -17% | – | –
O=C(NNC(=S)NC(=O)c1ccccc1Cl)c1cccc([N+](=O)[O-])c1 | 31.6% | – | 1.84 µM [rising, full curve]
Cc1c(C)n(Cc2ccc(Cl)cc2)c2ccc(C(=O)NCCN3CCOCC3)cc12 | – | – | 4.11 µM [rising, partial curve]
COc1ccc2oc(C(=O)OCC(=O)NC(C)c3ccccc3)c(C)c2c1 (stereo not drawn) | 26.6% | – | 6.51 µM [rising, single point]
Cc1ccc(SCC(=O)NNC(=O)c2ccc(S(C)(=O)=O)cc2)cc1 | 24.4% | 0.116 µM [rising, full curve, poor fit] | –
